Experimental data: PubChem BioAssay AID493246 (Drosophila RNAi Screening Center, 2011)
Aim: 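Identify essential fly genes by loss of cell viability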 (primary screen). Cells: Drosophila Kc and S2R+ cells. Reagents: long dsRNA against Drosophila genes. Detection: 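Cell number per well after knock-down, printed as raw plate values; calls were based on per-plate z-scores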. Reading the numbers: Kc cell number and S2R+ cell number: higher = more cells remaining. Rule for the call: 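Active when the per-plate z-score of cell number is 3 or more in the direction of fewer cells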.
In all, the deposit lists about 21,000 reagents; below is an unselected part of those with a known target gene and a result. Of all reagents, 429 (2%) got an active call. 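Values are raw and not normalised between plates; calls rest on per-plate z-scores that were not deposited.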 Reagents against one gene are numbered here. Names joined by + are all predicted targets of the reagent. The record does not give: the amount of reagent, the time to read-out.

| Target gene | reagent | Kc cell number, rep 1 | Kc cell number, rep 2 | S2R+ cell number, rep 1 | S2R+ cell number, rep 2 | Outcome |
| --- | --- | --- | --- | --- | --- | --- |
| ras (raspberry) | 1 | 5.99e5 | – | 9.75e5 | – | inactive |
| Mppe (Metallophosphoesterase) | 1 | 1.31e6 | 1.31e6 | 1.14e6 | 1.18e6 | inactive |
| HisCl1 (Histamine-gated chloride channel subunit 1) | 1 | 1.46e6 | 1.51e6 | 1.24e6 | 1.23e6 | inactive |
| CG31121 | 1 | 1.55e6 | 1.50e6 | 9.80e5 | 1.06e6 | inactive |
| CG31121 | 2 | 1.53e6 | 1.47e6 | 9.83e5 | 1.05e6 | inactive |
| Idgf5 (Imaginal disc growth factor 5) | 1 | 1.35e6 | 1.44e6 | 1.20e6 | 1.26e6 | inactive |
| CG4229 | 1 | 1.61e6 | 1.68e6 | 1.26e6 | 1.29e6 | inactive |
| slbo (slow border cells) | 1 | 1.55e6 | 1.64e6 | 1.33e6 | 1.36e6 | inactive |
| CG9084 | 1 | 1.44e6 | 1.53e6 | 1.22e6 | 1.26e6 | inactive |
| CG17032 | 1 | 1.34e6 | 1.52e6 | 1.20e6 | 1.30e6 | inactive |
| Cog8 (Component of oligomeric golgi complex 8) | 1 | 1.39e6 | 1.47e6 | 1.14e6 | 1.21e6 | inactive |
| zormin | 1 | 1.61e6 | 1.49e6 | 1.04e6 | 1.18e6 | inactive |
| zormin | 2 | 1.44e6 | 1.28e6 | 9.12e5 | 1.19e6 | inactive |
| zormin | 3 | 1.39e6 | 1.26e6 | 1.01e6 | 1.20e6 | inactive |
| zormin | 4 | 1.32e6 | 1.36e6 | 9.94e5 | 1.18e6 | inactive |
| zormin | 5 | 1.52e6 | 1.19e6 | 1.00e6 | 1.18e6 | inactive |
| zormin | 6 | 1.43e6 | 1.49e6 | 1.01e6 | 1.06e6 | inactive |
| pre-mod(mdg4)-U + mod(mdg4) | 1 | 1.57e6 | 1.53e6 | 1.08e6 | 1.14e6 | inactive |
| CG12608 | 1 | 5.54e5 | – | 8.05e5 | – | inactive |
| CG32719 | 1 | 1.38e6 | 1.63e6 | 1.18e6 | 1.23e6 | inactive |
| CG6660 | 1 | 1.67e6 | 1.94e6 | 1.26e6 | 1.33e6 | inactive |
| CG33230 | 1 | 1.59e6 | 1.61e6 | 1.18e6 | 1.06e6 | inactive |
| CG12702 | 1 | 1.55e6 | 1.61e6 | 9.93e5 | 1.14e6 | inactive |
| CG31327 | 1 | 1.41e6 | 1.65e6 | 1.09e6 | 1.29e6 | inactive |
| MFS9 (Major Facilitator Superfamily Transporter 9) | 1 | 1.47e6 | 1.58e6 | 1.14e6 | 1.16e6 | inactive |
| CG18178 | 1 | 1.48e6 | 1.59e6 | 1.39e6 | 1.28e6 | inactive |
| CG3345 | 1 | 1.33e6 | 1.30e6 | 9.95e5 | 9.24e5 | inactive |
| kud (kuduk) | 1 | 1.25e6 | 1.52e6 | 1.36e6 | 1.47e6 | inactive |
| Ak1 (Adenylate kinase 1) | 1 | 1.34e6 | 1.35e6 | 1.40e6 | 1.48e6 | inactive |
| Cpr67Fa2 (Cuticular protein 67Fa2) | 1 | 1.34e6 | 1.33e6 | 1.24e6 | 1.30e6 | inactive |
| CG15452 | 1 | 1.46e6 | 1.50e6 | 1.06e6 | 1.16e6 | inactive |
| Prp39 (pre-mRNA processing factor 39) | 1 | 5.86e5 | – | 7.30e5 | – | inactive |
| CG42354 + CG42353 | 1 | 4.18e5 | – | 6.79e5 | – | inactive |
| Phk-3 (Pherokine 3) | 1 | 1.56e6 | 1.47e6 | 1.30e6 | 1.38e6 | inactive |
| pros (prospero) | 1 | 1.52e6 | 1.67e6 | 1.01e6 | 1.28e6 | inactive |
| pros (prospero) | 2 | 1.57e6 | 1.47e6 | 1.22e6 | 1.29e6 | inactive |
| Polr3H (RNA polymerase III subunit H) | 1 | 1.52e6 | 1.61e6 | 1.28e6 | 1.43e6 | inactive |
| schuy (schumacher-levy) | 1 | 1.60e6 | 1.67e6 | 1.36e6 | 1.46e6 | inactive |
| CG15312 | 1 | 5.57e5 | – | 9.02e5 | – | inactive |
| CG3376 | 1 | 1.62e6 | 1.74e6 | 1.16e6 | 1.10e6 | inactive |
| CG15226 (retired record) | 1 | 5.87e5 | – | 8.37e5 | – | inactive |
| CG15226 (retired record) | 2 | 1.86e6 | 1.94e6 | 1.33e6 | 2.90e5 | inactive |
| Prat (Phosphoribosylamidotransferase) | 1 | 1.64e6 | 1.62e6 | 1.34e6 | 1.38e6 | inactive |
| CG31224 | 1 | 1.68e6 | 1.80e6 | 1.34e6 | 1.44e6 | inactive |
| RpL7A (Ribosomal protein L7A) | 1 | 1.03e6 | 1.04e6 | 5.58e5 | 6.75e5 | active |
| CG17380 | 1 | 1.54e6 | 1.72e6 | 1.13e6 | 1.18e6 | inactive |
| loopin-1 | 1 | 1.30e6 | 1.32e6 | 1.18e6 | 1.26e6 | inactive |
| CycH (Cyclin H) | 1 | 1.47e6 | 1.47e6 | 1.36e6 | 1.44e6 | inactive |
| CG11286 | 1 | 1.42e6 | 1.49e6 | 1.29e6 | 1.40e6 | inactive |
| CG34051 | 1 | 1.61e6 | 1.68e6 | 1.08e6 | 1.13e6 | inactive |
| CG9643 | 1 | 1.52e6 | 1.53e6 | 1.10e6 | 1.34e6 | inactive |
| CG8369 | 1 | 1.49e6 | 1.58e6 | 1.37e6 | 1.48e6 | inactive |
| CG14106 | 1 | 1.26e6 | 1.29e6 | 1.27e6 | 1.37e6 | inactive |
| GstS1 (Glutathione S transferase S1) | 1 | 1.23e6 | 1.31e6 | 7.95e5 | 7.44e5 | inactive |
| Rnb (R and B) | 1 | 5.50e5 | – | 8.10e5 | – | inactive |
| Rpp25 (Ribonuclease P/MRP subunit p25) | 1 | 1.68e6 | 1.80e6 | 1.34e6 | 1.45e6 | inactive |
| nur (nemuri) | 1 | 1.49e6 | 1.62e6 | 1.04e6 | 1.23e6 | inactive |
| tok (tolkin) | 1 | 1.86e6 | 1.82e6 | 1.34e6 | 1.39e6 | inactive |
| CG15771 | 1 | 1.51e6 | 1.49e6 | 9.98e5 | 1.08e6 | inactive |

7 entries already listed, arranged by “S2R+ cell number, rep 1”, ascending.
| Target gene | reagent | Kc cell number, rep 1 | Kc cell number, rep 2 | S2R+ cell number, rep 1 | S2R+ cell number, rep 2 | Outcome |
| --- | --- | --- | --- | --- | --- | --- |
| GstS1 (Glutathione S transferase S1) | 1 | 1.23e6 | 1.31e6 | 7.95e5 | 7.44e5 | inactive |
| Rnb (R and B) | 1 | 5.50e5 | – | 8.10e5 | – | inactive |
| nur (nemuri) | 1 | 1.49e6 | 1.62e6 | 1.04e6 | 1.23e6 | inactive |
| CG9643 | 1 | 1.52e6 | 1.53e6 | 1.10e6 | 1.34e6 | inactive |
| CG14106 | 1 | 1.26e6 | 1.29e6 | 1.27e6 | 1.37e6 | inactive |
| Rpp25 (Ribonuclease P/MRP subunit p25) | 1 | 1.68e6 | 1.80e6 | 1.34e6 | 1.45e6 | inactive |
| CG8369 | 1 | 1.49e6 | 1.58e6 | 1.37e6 | 1.48e6 | inactive |
